# The list shows a part of the results.
# The chains behind the UniProt entries cited, without tags or fusion partners. Where a name states a change or a piece, a line headed by the entry shows the natural chain unless it says otherwise.
# UniProt Q7Z569: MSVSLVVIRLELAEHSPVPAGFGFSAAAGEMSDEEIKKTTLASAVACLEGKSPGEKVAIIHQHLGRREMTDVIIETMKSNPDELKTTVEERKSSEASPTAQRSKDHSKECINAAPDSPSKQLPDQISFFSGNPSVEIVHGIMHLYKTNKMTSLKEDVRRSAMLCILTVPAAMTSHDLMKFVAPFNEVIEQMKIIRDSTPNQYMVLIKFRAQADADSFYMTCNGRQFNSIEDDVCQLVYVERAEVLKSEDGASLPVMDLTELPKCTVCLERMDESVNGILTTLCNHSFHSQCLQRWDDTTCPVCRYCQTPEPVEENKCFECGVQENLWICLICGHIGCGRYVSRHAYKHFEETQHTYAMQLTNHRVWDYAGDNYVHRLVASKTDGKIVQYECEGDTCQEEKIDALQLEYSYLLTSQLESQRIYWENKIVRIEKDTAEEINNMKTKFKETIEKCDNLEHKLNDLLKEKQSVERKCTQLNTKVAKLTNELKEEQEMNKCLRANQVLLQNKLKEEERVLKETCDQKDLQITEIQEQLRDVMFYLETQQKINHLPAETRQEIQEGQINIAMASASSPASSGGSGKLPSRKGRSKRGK
# UniProt Q9H0E9, whole entry, looked up: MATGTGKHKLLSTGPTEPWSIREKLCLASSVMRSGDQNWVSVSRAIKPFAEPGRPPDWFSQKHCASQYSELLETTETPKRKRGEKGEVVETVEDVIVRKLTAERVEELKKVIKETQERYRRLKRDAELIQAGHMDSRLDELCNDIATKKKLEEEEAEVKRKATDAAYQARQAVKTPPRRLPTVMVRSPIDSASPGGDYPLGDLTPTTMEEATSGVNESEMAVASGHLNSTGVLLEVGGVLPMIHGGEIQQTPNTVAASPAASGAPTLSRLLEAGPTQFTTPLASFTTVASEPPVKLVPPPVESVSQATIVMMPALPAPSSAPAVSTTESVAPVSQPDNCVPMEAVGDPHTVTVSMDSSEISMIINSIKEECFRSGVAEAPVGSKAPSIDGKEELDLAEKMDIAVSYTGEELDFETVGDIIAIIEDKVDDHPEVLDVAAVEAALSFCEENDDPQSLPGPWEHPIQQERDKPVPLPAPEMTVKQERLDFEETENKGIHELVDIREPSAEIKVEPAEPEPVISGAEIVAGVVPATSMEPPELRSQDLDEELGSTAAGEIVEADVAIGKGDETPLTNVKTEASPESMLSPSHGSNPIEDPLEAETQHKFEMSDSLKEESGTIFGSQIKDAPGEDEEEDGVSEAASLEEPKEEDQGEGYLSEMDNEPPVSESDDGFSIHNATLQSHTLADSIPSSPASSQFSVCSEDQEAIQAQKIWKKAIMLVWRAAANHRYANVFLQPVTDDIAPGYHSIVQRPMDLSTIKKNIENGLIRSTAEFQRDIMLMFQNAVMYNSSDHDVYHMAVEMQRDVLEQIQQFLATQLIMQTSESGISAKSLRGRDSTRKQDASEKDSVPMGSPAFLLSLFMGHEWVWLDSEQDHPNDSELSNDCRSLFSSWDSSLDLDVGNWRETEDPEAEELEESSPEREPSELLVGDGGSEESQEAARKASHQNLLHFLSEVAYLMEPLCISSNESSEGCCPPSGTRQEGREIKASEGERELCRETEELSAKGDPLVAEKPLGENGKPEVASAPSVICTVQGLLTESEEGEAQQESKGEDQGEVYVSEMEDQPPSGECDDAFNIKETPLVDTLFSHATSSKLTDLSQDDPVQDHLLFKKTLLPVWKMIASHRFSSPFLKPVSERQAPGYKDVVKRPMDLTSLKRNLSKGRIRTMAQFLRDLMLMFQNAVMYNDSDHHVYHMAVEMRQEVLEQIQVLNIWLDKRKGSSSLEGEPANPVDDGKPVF
# UniProt Q6QNY0: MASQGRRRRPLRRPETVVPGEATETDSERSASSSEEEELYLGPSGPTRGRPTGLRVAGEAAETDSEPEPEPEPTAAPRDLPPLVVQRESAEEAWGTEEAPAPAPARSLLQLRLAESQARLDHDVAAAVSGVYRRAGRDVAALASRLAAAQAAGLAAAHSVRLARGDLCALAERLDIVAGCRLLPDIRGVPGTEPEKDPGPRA
# UniProt Q14137: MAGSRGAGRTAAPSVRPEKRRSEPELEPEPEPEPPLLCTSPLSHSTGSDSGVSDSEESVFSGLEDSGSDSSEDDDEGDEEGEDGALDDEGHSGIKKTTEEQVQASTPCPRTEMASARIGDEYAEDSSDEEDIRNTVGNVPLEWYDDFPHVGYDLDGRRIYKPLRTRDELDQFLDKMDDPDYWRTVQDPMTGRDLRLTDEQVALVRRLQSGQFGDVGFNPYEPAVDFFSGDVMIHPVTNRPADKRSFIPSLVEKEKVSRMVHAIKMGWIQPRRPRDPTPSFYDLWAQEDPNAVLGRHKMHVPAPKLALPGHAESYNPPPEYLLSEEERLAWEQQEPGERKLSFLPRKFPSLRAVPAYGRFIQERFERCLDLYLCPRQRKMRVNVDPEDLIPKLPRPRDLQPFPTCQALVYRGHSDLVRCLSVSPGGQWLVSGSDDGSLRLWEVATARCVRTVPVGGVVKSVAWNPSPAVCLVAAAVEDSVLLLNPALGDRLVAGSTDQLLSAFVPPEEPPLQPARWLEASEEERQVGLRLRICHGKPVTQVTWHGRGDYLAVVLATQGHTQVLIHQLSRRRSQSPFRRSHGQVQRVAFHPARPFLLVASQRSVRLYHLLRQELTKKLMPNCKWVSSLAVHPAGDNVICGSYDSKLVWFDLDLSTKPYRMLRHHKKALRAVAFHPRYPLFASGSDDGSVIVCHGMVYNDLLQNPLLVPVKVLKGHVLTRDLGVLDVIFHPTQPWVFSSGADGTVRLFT
# UniProt P55957: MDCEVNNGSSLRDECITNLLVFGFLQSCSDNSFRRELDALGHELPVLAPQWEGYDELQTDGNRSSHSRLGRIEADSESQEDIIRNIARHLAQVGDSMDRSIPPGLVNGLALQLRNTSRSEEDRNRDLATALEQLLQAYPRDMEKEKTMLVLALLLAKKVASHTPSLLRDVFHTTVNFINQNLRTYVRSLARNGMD
# UniProt Q9P287, whole entry, looked up: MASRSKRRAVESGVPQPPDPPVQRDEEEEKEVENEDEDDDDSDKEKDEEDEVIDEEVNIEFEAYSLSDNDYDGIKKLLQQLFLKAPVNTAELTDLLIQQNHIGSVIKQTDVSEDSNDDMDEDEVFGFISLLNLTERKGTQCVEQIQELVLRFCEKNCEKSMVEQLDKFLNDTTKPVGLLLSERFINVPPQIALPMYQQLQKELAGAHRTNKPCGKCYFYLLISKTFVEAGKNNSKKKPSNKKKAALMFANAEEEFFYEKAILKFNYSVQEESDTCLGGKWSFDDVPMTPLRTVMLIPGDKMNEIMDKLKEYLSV
# UniProt O00512: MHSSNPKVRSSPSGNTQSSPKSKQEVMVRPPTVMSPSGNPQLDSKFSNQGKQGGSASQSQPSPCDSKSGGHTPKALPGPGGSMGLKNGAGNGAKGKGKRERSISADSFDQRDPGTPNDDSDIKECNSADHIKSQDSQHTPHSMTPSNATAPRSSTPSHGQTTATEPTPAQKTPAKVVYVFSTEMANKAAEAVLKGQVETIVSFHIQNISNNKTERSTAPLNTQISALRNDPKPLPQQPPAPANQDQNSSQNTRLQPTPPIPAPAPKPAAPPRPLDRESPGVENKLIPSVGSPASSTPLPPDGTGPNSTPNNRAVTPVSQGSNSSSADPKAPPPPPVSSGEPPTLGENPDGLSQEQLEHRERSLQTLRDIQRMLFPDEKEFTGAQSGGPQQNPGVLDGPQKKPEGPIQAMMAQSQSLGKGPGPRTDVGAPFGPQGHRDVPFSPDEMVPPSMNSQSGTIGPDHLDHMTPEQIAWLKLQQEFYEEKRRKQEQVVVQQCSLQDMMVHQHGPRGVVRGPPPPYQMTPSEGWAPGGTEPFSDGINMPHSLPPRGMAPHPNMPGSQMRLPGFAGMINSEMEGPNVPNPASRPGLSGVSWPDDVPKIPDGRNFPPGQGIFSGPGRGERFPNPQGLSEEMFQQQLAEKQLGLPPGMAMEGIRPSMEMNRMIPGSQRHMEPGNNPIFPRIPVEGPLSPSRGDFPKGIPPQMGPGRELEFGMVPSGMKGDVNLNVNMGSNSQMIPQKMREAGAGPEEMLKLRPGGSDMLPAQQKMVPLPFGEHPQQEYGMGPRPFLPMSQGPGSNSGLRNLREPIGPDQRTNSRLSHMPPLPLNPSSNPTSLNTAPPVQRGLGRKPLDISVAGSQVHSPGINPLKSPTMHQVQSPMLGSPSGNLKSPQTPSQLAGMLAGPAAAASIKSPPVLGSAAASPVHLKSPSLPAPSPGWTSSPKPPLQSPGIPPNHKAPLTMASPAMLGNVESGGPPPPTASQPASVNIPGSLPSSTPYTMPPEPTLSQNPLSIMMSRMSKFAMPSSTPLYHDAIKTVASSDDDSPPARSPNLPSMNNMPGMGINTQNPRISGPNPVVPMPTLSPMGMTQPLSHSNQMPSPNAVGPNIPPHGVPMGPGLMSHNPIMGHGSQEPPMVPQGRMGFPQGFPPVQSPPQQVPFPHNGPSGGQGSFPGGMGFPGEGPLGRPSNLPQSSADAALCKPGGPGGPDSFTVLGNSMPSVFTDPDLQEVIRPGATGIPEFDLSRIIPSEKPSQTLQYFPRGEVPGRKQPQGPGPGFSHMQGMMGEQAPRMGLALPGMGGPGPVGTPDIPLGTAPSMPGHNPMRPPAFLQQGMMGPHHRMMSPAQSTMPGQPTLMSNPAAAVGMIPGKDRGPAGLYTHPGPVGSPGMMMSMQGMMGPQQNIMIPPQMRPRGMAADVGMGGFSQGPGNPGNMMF
# UniProt Q8TDN6: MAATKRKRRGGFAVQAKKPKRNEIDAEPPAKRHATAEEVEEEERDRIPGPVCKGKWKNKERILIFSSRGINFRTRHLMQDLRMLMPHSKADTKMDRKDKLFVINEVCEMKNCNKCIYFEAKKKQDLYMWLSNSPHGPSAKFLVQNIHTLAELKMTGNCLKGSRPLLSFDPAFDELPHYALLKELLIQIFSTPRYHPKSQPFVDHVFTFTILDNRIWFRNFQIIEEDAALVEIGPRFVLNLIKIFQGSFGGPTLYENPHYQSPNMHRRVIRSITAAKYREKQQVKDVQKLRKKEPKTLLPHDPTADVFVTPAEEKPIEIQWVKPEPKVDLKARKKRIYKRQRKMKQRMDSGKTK
# Experiments:
# Assay in all cases: log2 fold change, soluble protein after heating vs DMSO (PISA); higher = thermal stabilisation; K562 cells, 10 uM, 30 min; active = over 0.2 and 3.5 SD of the protein, either way, in both replicates (recomputed)
# [1] = compound: CC1=C(C=C(C=C1)NC(=O)C2=CC(=CC=C2)C(C)(C)C#N)NC3=CC4=C(C=C3)N=CN(C4=O)C
# In short: (§1)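 K562 cells at 2×10^6 cells/mL were given 10 μM compound for 30 min. Aliquots then went through 3 min of heating across 48°C-58°C, were pooled, and were extracted in PBS with 0.5% NP-40 at 4°C, and the supernatant after 21,000xg for 90 min was quantified by TMTpro 16plex LC-MS/MS with channel sums equalised. Thermal stability relative to control samples, from duplicates, is given as log2 fold change.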
# [2] = compound: CC1=C(C=C(C=C1)NC(=O)C2=CC(=CC=C2)N(C)C)NC(=O)C3=CC=C(C=C3)O
# In short: as §1
# [3] = compound: CC1=CC=C(C=C1)SC2=C3C=C(SC3=CN=C2)C(=O)N
# In short: as §1
# [4] = compound: CC1=NC(=CC=C1)C2=C(N=C(N2)C(C)(C)C)C3=CC4=NC=CN=C4C=C3
# In short: as §1
# Nexturastat A = compound: CCCCN(Cc1ccc(C(=O)NO)cc1)C(=O)Nc1ccccc1 [Nexturastat A]
# In short: as §1
# vemurafenib = compound: CCCS(=O)(=O)Nc1ccc(F)c(C(=O)c2c[nH]c3ncc(-c4ccc(Cl)cc4)cc23)c1F [vemurafenib]
# In short: as §1
# [5] = compound: CCCS(=O)(=O)Nc1ccc(F)c(C(=O)c2c[nH]c3ncc(Cl)cc23)c1F
# In short: as §1
# [6] = compound: CCCc1cc(C)[nH]c(=O)c1CNC(=O)c1cc(-c2ccnc(N3CCN(C)CC3)c2)cc2c1cnn2C(C)C
# In short: as §1
# givinostat = compound: CCN(CC)Cc1ccc2cc(COC(=O)Nc3ccc(C(=O)NO)cc3)ccc2c1 [givinostat]
# In short: as §1
# barasertib = compound: CCN(CCCOc1ccc2c(Nc3cc(CC(=O)Nc4cccc(F)c4)[nH]n3)ncnc2c1)CCOP(=O)(O)O [barasertib]
# In short: as §1
# [7] = compound: CC[C@@H]1C(=O)N(C)c2cnc(Nc3ccc(C(=O)NC4CCN(C)CC4)cc3OC)nc2N1C1CCCC1
# In short: as §1
# volasertib = compound: CC[C@@H]1C(=O)N(C)c2cnc(Nc3ccc(C(=O)N[C@H]4CC[C@H](N5CCN(CC6CC6)CC5)CC4)cc3OC)nc2N1C(C)C [volasertib]
# In short: as §1
# [8] = compound: CC[C@H](C)N1C=C(C2=C(C=C(C=C21)C3=CN=C(C=C3)N4CCNCC4)C(=O)NCC5=C(C=C(NC5=O)C)C)C
# In short: as §1
# epoxomicin = compound: CC[C@H](C)[C@@H](C(=O)N[C@@H]([C@@H](C)O)C(=O)N[C@@H](CC(C)C)C(=O)[C@]1(CO1)C)NC(=O)[C@H]([C@@H](C)CC)N(C)C(=O)C [epoxomicin]
# In short: as §1
# [9] = compound: CCn1cc(-c2ccnc3[nH]c(-c4cccc(CN(C)C)c4)cc23)c(-c2ccc(NC(=O)N(C)C)cc2)n1
# In short: as §1
# [10] = compound: CN(C)CC(=O)Nc1ccc2[nH]c(=O)c3ccccc3c2c1
# In short: as §1
# [11] = compound: CN1C2=C(C3=C1C(=O)N(N=C3)CC4=CC(=CC=C4)N)SC(=C2)S(=O)C
# In short: as §1
# [12] = compound: CN1CCC(CNc2ccc3ncc(-c4cccc(OC(F)(F)F)c4)n3n2)CC1
# In short: as §1
# [13] = compound: CCn1c(C(=O)N(C2CC2)C2CC2)cc2c3c(ncn3C)c(Nc3cc(C)n(C)n3)nc21
# In short: as §1
Target,log2 fold change [1],log2 fold change [2],log2 fold change [3],log2 fold change [4],log2 fold change (Nexturastat A),log2 fold change (vemurafenib),log2 fold change [5],log2 fold change [6],log2 fold change (givinostat),log2 fold change (barasertib),log2 fold change [7],log2 fold change (volasertib),log2 fold change [8],log2 fold change (epoxomicin),log2 fold change [9],log2 fold change [10],log2 fold change [11],log2 fold change [12],log2 fold change [13]
BRAP (UniProt Q7Z569),inactive: 0.057,inactive: 0.075,inactive: 0.023,inactive: 0.029,inactive: -0.031,inactive: 0.037,inactive: 0.151,inactive: 0.08,inactive: -0.081,inactive: 0.08,inactive: -0.092,inactive: -0.23,inactive: 0.033,inactive: -0.093,inactive: 0.086,inactive: 0.02,inactive: 0.06,inactive: -0.158,
BRD8 isoform 2 (UniProt Q9H0E9),inactive: -0.013,inactive: -0.333,inactive: -0.044,inactive: -0.023,inactive: -0.023,inactive: 0.183,inactive: 0.06,,inactive: -0.126,inactive: -0.039,inactive: 0.036,inactive: 0.025,,inactive: -0.105,inactive: 0.219,active: 0.432,inactive: 0.087,inactive: -0.327,
BLOC1S3 (UniProt Q6QNY0),inactive: -0.03,inactive: 0.049,inactive: 0.046,inactive: 0.052,inactive: -0.031,inactive: -0.049,inactive: -0.029,inactive: -0.058,inactive: -0.016,inactive: 0.021,inactive: 0.024,inactive: 0.018,inactive: -0.04,inactive: -0.011,inactive: -0.017,inactive: 0.058,inactive: -0.062,inactive: -0.01,
BOP1 (UniProt Q14137),inactive: -0.06,inactive: 0.007,inactive: 0.015,inactive: 0.023,inactive: 0.162,inactive: 0.047,inactive: -0.006,inactive: 0.055,inactive: 0.09,inactive: -0.054,inactive: -0.072,inactive: -0.328,inactive: 0.019,inactive: 0.002,inactive: -0.075,inactive: 0.009,inactive: 0.228,inactive: 0.141,
BID isoform 2 (UniProt P55957),inactive: -0.054,inactive: -0.02,inactive: 0.029,inactive: 0.012,inactive: -0.056,inactive: 0.117,inactive: 0.001,inactive: 0.016,inactive: -0.001,inactive: -0.01,inactive: 0.013,inactive: -0.196,inactive: -0.022,inactive: -0.036,inactive: 0.045,inactive: 0.042,inactive: -0.068,inactive: -0.048,
BCCIP isoform 2 (UniProt Q9P287),inactive: 0.042,inactive: -0.055,inactive: -0.015,inactive: 0.022,inactive: -0.065,inactive: 0.008,inactive: -0.003,inactive: -0.099,inactive: -0.066,inactive: 0.026,inactive: -0.037,inactive: -0.038,inactive: 0.044,inactive: 0.019,inactive: 0.022,inactive: 0.026,inactive: -0.042,inactive: -0.028,
BCL9 (UniProt O00512),inactive: 0.229,inactive: -0.041,inactive: 0.005,inactive: 0.065,inactive: 0.023,inactive: -0.224,inactive: 0.005,,inactive: -0.064,,inactive: -0.112,inactive: -0.034,,inactive: 0.145,inactive: -0.105,inactive: -0.31,inactive: 0.011,inactive: 0,inactive: -0.099
BCCIP (UniProt Q9P287),inactive: -0.023,inactive: -0.015,inactive: -0.009,inactive: -0.01,inactive: -0.002,inactive: 0.02,inactive: 0.036,inactive: -0.004,inactive: 0.035,inactive: 0.033,inactive: -0.009,inactive: -0.047,inactive: -0.005,inactive: 0.092,inactive: 0.033,inactive: 0.019,inactive: 0.047,inactive: -0.043,
BRIX1 (UniProt Q8TDN6),inactive: 0.038,inactive: -0.061,inactive: -0.09,inactive: -0.134,inactive: 0.37,inactive: -0.11,inactive: 0.008,inactive: 0.159,inactive: 0.15,inactive: -0.197,inactive: 0.166,inactive: 0.317,inactive: 0.048,inactive: -0.343,inactive: 0.31,inactive: -0.143,inactive: 0.36,inactive: 0.481,

# Nothing new here: an excerpt of the list.
Target,log2 fold change [1],log2 fold change [2],log2 fold change [3],log2 fold change [4],log2 fold change (Nexturastat A),log2 fold change (vemurafenib),log2 fold change [5],log2 fold change [6],log2 fold change (givinostat),log2 fold change (barasertib),log2 fold change [7],log2 fold change (volasertib),log2 fold change [8],log2 fold change (epoxomicin),log2 fold change [9],log2 fold change [10],log2 fold change [11],log2 fold change [12],log2 fold change [13]
BOP1 (UniProt Q14137),inactive: -0.06,inactive: 0.007,inactive: 0.015,inactive: 0.023,inactive: 0.162,inactive: 0.047,inactive: -0.006,inactive: 0.055,inactive: 0.09,inactive: -0.054,inactive: -0.072,inactive: -0.328,inactive: 0.019,inactive: 0.002,inactive: -0.075,inactive: 0.009,inactive: 0.228,inactive: 0.141,
BID isoform 2 (UniProt P55957),inactive: -0.054,inactive: -0.02,inactive: 0.029,inactive: 0.012,inactive: -0.056,inactive: 0.117,inactive: 0.001,inactive: 0.016,inactive: -0.001,inactive: -0.01,inactive: 0.013,inactive: -0.196,inactive: -0.022,inactive: -0.036,inactive: 0.045,inactive: 0.042,inactive: -0.068,inactive: -0.048,

# Source: the supplement of paper PMC10849652
